# PubChem BioAssay AID1259254, NCATS, 2017
# Screen: 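Genome-wide screen for genes that prevent DNA re-replication in cancer cells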 (primary screen)
# System: human HCT116 colorectal cancer cells
# Reagents: single siRNA against human genes
# Duration: 3 days
# Read-out: 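Nuclei stained with Hoechst and imaged; cell-cycle phase assigned by DNA content; G2 share scaled per plate, non-targeting siRNA 0%, GMNN siRNA 100%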
# Scale: G2 robust z-score: higher = more G2 cells, more excess DNA replication
# Rule for the call: 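Active siRNAs have a G2 robust z of 5 or more median absolute deviations over the median, which in these data means about 38% or higher of GMNN control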
# The whole screen tested about 59,000 reagents; below is a random part of them. About 1,550 of all reagents (2.6%) were called active. 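G2 share is only a proxy for re-replication; each gene was hit by three separate siRNAs, and active genes were retested.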 Reagents against one gene are numbered here. Not all columns of the deposit are shown. Reagent sequences are not shown. Not given: the amount of reagent.
gene,reagent no.,G2 robust z-score,outcome
RPSAP47 (ribosomal protein SA pseudogene 47),1,5.85,active
RPSAP47 (ribosomal protein SA pseudogene 47),2,2.4,inactive
RPSAP47 (ribosomal protein SA pseudogene 47),3,-0.747,inactive
FBXO8 (F-box protein 8),1,-0.923,inactive
FBXO8 (F-box protein 8),2,0.0522,inactive
FBXO8 (F-box protein 8),3,-0.586,inactive
EXD1 (exonuclease 3'-5' domain containing 1),1,0.777,inactive
EXD1 (exonuclease 3'-5' domain containing 1),2,-0.0287,inactive
EXD1 (exonuclease 3'-5' domain containing 1),3,0.0885,inactive
FSTL1 (follistatin like 1),1,2.01,inactive
FSTL1 (follistatin like 1),2,-0.739,inactive
FSTL1 (follistatin like 1),3,-0.711,inactive
"RAB42P1 (RAB42, member RAS oncogene family, pseudogene 1)",1,0.0942,inactive
"RAB42P1 (RAB42, member RAS oncogene family, pseudogene 1)",2,0.0158,inactive
"RAB42P1 (RAB42, member RAS oncogene family, pseudogene 1)",3,-0.444,inactive
LPAR6 (lysophosphatidic acid receptor 6),1,-0.477,inactive
LPAR6 (lysophosphatidic acid receptor 6),2,-0.135,inactive
LPAR6 (lysophosphatidic acid receptor 6),3,-0.262,inactive
ZNF302 (zinc finger protein 302),1,-0.129,inactive
ZNF302 (zinc finger protein 302),2,-0.447,inactive
ZNF302 (zinc finger protein 302),3,1.27,inactive
MAPK12 (mitogen-activated protein kinase 12),1,-1.05,inactive
MAPK12 (mitogen-activated protein kinase 12),2,-0.733,inactive
MAPK12 (mitogen-activated protein kinase 12),3,0.0695,inactive
GPX6 (glutathione peroxidase 6),1,3.82,inactive
GPX6 (glutathione peroxidase 6),2,0.962,inactive
GPX6 (glutathione peroxidase 6),3,0.832,inactive
EMC1 (ER membrane protein complex subunit 1),1,1.36,inactive
EMC1 (ER membrane protein complex subunit 1),2,1.78,inactive
EMC1 (ER membrane protein complex subunit 1),3,-0.224,inactive
KCNJ5-AS1 (KCNJ5 antisense RNA 1),1,0.692,inactive
KCNJ5-AS1 (KCNJ5 antisense RNA 1),2,-0.0595,inactive
KCNJ5-AS1 (KCNJ5 antisense RNA 1),3,-0.434,inactive
ZNF615 (zinc finger protein 615),1,-0.342,inactive
ZNF615 (zinc finger protein 615),2,-0.609,inactive
ZNF615 (zinc finger protein 615),3,0.759,inactive
SRRM4 (serine/arginine repetitive matrix 4),1,1.46,inactive
SRRM4 (serine/arginine repetitive matrix 4),2,1.28,inactive
SRRM4 (serine/arginine repetitive matrix 4),3,-0.626,inactive
SCN5A (sodium voltage-gated channel alpha subunit 5),1,7.88,active
SCN5A (sodium voltage-gated channel alpha subunit 5),2,5.21,active
SCN5A (sodium voltage-gated channel alpha subunit 5),3,-0.741,inactive
BTF3L4P2 (basic transcription factor 3 like 4 pseudogene 2),1,3.1,inactive
BTF3L4P2 (basic transcription factor 3 like 4 pseudogene 2),2,-0.269,inactive
BTF3L4P2 (basic transcription factor 3 like 4 pseudogene 2),3,-0.572,inactive
RGS21 (regulator of G protein signaling 21),1,-0.441,inactive
RGS21 (regulator of G protein signaling 21),2,0.963,inactive
RGS21 (regulator of G protein signaling 21),3,-0.274,inactive
TCERG1L (transcription elongation regulator 1 like),1,0.0751,inactive
TCERG1L (transcription elongation regulator 1 like),2,-0.489,inactive
TCERG1L (transcription elongation regulator 1 like),3,0.878,inactive
CYP11B1 (cytochrome P450 family 11 subfamily B member 1),1,-0.105,inactive
CYP11B1 (cytochrome P450 family 11 subfamily B member 1),2,1.06,inactive
CYP11B1 (cytochrome P450 family 11 subfamily B member 1),3,0.499,inactive
VPS18 (VPS18 core subunit of CORVET and HOPS complexes),1,0.279,inactive
VPS18 (VPS18 core subunit of CORVET and HOPS complexes),2,-0.636,inactive
VPS18 (VPS18 core subunit of CORVET and HOPS complexes),3,0.837,inactive
LOC730668 (dynein heavy chain -like pseudogene),1,1.11,inactive
LOC730668 (dynein heavy chain -like pseudogene),2,-0.0809,inactive
LOC730668 (dynein heavy chain -like pseudogene),3,-0.585,inactive
ADCY9 (adenylate cyclase 9),1,0.418,inactive
ADCY9 (adenylate cyclase 9),2,0.275,inactive
ADCY9 (adenylate cyclase 9),3,-0.171,inactive
BCHE (butyrylcholinesterase),1,-0.0231,inactive
BCHE (butyrylcholinesterase),2,-0.566,inactive
BCHE (butyrylcholinesterase),3,0.345,inactive
PAK5 (p21 (RAC1) activated kinase 5),1,-0.351,inactive
PAK5 (p21 (RAC1) activated kinase 5),2,-0.548,inactive
PAK5 (p21 (RAC1) activated kinase 5),3,-0.759,inactive

Not a retest: 9 of the entries above.
gene,reagent no.,G2 robust z-score,outcome
LPAR6 (lysophosphatidic acid receptor 6),1,-0.477,inactive
LPAR6 (lysophosphatidic acid receptor 6),2,-0.135,inactive
LPAR6 (lysophosphatidic acid receptor 6),3,-0.262,inactive
ZNF302 (zinc finger protein 302),1,-0.129,inactive
ZNF302 (zinc finger protein 302),2,-0.447,inactive
ZNF302 (zinc finger protein 302),3,1.27,inactive
MAPK12 (mitogen-activated protein kinase 12),1,-1.05,inactive
MAPK12 (mitogen-activated protein kinase 12),2,-0.733,inactive
MAPK12 (mitogen-activated protein kinase 12),3,0.0695,inactive
